Some of the results follow.

Chains of the proteins cited; added tags and fusions are not shown.
UniProt Q0JBA9, entry or part of it: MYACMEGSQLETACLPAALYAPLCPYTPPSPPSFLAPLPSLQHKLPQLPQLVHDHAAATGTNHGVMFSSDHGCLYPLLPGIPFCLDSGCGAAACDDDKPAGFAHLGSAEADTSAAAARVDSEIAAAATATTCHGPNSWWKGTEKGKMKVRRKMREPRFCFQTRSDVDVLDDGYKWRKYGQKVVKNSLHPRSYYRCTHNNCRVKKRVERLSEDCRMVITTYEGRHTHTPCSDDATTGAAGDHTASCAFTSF

We go through 42 sequences from PMC7819943, “Rice protein-binding microarrays: a tool to detect cis-acting elements near promoter regions in rice”.

The assay deals with OsWRKY34 (Oryza sativa, UniProt Q0JBA9 1-250). As to the kind of experiment: protein-binding microarray (RPBM); PBS, 2% BSA, 51.3 ng/ul salmon testes DNA, 50 uM zinc acetate, 200 nM TF, 25 C, 1 h; high values mean tight binding. The conditions noted are these: protein: recombinant; tags: N-terminal polyhistidine and DsRed monomer fusion (pET32a); label: CyDye5-dUTP incorporated in the synthesized complementary strand; 3' TTTTT single-stranded linker to array surface; dsDNA, one strand shown. The method, boiled down:
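The binding signal is fluorescence intensity per feature, in arbitrary units, read on an Axon 4000B scanner. Polyhistidine- and DsRed-tagged transcription factors (N-terminal fusions) from E. coli BL21-CodonPlus were purified on Ni–NTA and applied at 200 nM for 1 h at 25 °C to a double-stranded, BSA-blocked custom Agilent array in buffer with 50 µM zinc acetate.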
Turning to “ACATTCATTGCCTTTTGAGCTTGACCCACACCACTCTGAGCGGAGTCACCTAGTGCAG”, the binding signal is 8610 fluorescence intensity (a.u.).

On to “GCTAGGGTTTGGGAATTTGGTGTCGGCGTCGTCGTCGTCGCGGAGTCACCTAGTGCAG”, for which the binding signal was 10500 fluorescence intensity (a.u.).

As for “TACCATCCCTCGCTATAGGAGTTTTTTGTTTTTAAGTAACCGGAGTCACCTAGTGCAG”, the binding signal was 9360 fluorescence intensity (a.u.).

As for “TCTTACTCTCTCCATCCCAAAATGTTTGACGCCGTTGACTCGGAGTCACCTAGTGCAG”, the binding signal was 13400 fluorescence intensity (a.u.).

Turning to “ATCGGTGCTGAAGCTTGGTTCCCATTTCCCGATCTTTTACCGGAGTCACCTAGTGCAG”, the binding signal is 8330 fluorescence intensity (a.u.).

For “GCTGGTTGGGCTGCCTCATGGGCTTTTGTGGGCCGTAGGCCGGAGTCACCTAGTGCAG”, the binding signal is 9270 fluorescence intensity (a.u.).

Regarding “TTTGTGGGAGTGGCTTGTTGTTCTAGGAGAAATCGTGGTTCGGAGTCACCTAGTGCAG”, the binding signal was 9920 fluorescence intensity (a.u.).

In the case of “GTTAACTTTTTAGAACATGTTTGACCGTTCGTCTTATTCACGGAGTCACCTAGTGCAG”, the binding signal was 8930 fluorescence intensity (a.u.).

As for “AGCATCTCTCACACAATGTACTACGACCCTGTTTAGATCCCGGAGTCACCTAGTGCAG”, the binding signal is 9170 fluorescence intensity (a.u.).

For the sequence “GCAATTGGCGTCTGTGGTTTTTTTCCGTAATGATTTTTCACGGAGTCACCTAGTGCAG”, the binding signal was 9530 fluorescence intensity (a.u.).

In the case of “TCTGAGAGCAGTAACGTTGACCAAGACCAAAGCAAACAACCGGAGTCACCTAGTGCAG”, the binding signal is 11600 fluorescence intensity (a.u.).

Turning to “ATCATTAGACTTTACTATCCACTCCAAGTAAGGCATTTCCCGGAGTCACCTAGTGCAG”, the binding signal was 10000 fluorescence intensity (a.u.).

As for “TAATCTCCTGCATCTTTGGCCCAATATTCTGGTCCACTCTCGGAGTCACCTAGTGCAG”, the binding signal is 8710 fluorescence intensity (a.u.).

With “GCTCACCACAGCCATTCGTCCCCGGGCCTCGCCGCGCCGCCGGAGTCACCTAGTGCAG”, the binding signal is 11100 fluorescence intensity (a.u.).

For the sequence “TGTCAGGTTCAGCCAACTCTTGCCGCTCTACCGTCTTCTCCGGAGTCACCTAGTGCAG”, the binding signal was 8850 fluorescence intensity (a.u.).

For the sequence “CTTAACGCAGCCGCAATCCACTTCTCTCGTCTCTTCTCTTCGGAGTCACCTAGTGCAG”, the binding signal is 9650 fluorescence intensity (a.u.).

Take “TTGTTGCTGGTGATGTTGTTCTTTTCATTGTTCCCTTTCCCGGAGTCACCTAGTGCAG”: the binding signal is 9700 fluorescence intensity (a.u.).

Take “CACCATAGTACATGTACAGTTCCATCCATCAGCCTCTATACGGAGTCACCTAGTGCAG”: the binding signal was 11000 fluorescence intensity (a.u.).

As to “CTATATCTTGGAGATAAGTGGTGGTTTGTGATGAAATGTACGGAGTCACCTAGTGCAG”, the binding signal was 9050 fluorescence intensity (a.u.).

On to “GCTAATGCCTGTGAGCCATGTTCATCACCTGTTTCTGTAGCGGAGTCACCTAGTGCAG”, for which the binding signal is 9740 fluorescence intensity (a.u.).

As to “GGCGGCGCCGGCGCTCGTCCTGCCGCCACCGCCGCGGCCGCGGAGTCACCTAGTGCAG”, the binding signal was 8320 fluorescence intensity (a.u.).

Regarding “CGAAATGGGAGGCGGGGTTTAGGGTTTCCGGCGGGGAGGGCGGAGTCACCTAGTGCAG”, the binding signal is 25200 fluorescence intensity (a.u.).

In the case of “CATTTCTTCTGAGTATTCAATGTTTCGTCCCCACGAAAATCGGAGTCACCTAGTGCAG”, the binding signal is 8540 fluorescence intensity (a.u.).

Consider “CATCTTACTTAAGGTTGTTGGATCAACTCTTCCCTTCTTCCGGAGTCACCTAGTGCAG”, for which the binding signal was 8380 fluorescence intensity (a.u.).

For the sequence “CCAGAGTCTCACGGCAACCGTGTCCGTCCGCGCGCGCTCCCGGAGTCACCTAGTGCAG”, the binding signal is 8940 fluorescence intensity (a.u.).

Take “TCTCTGAAGTGTTGTGGAGTTTTTTTTTCTTTGTTTAAATCGGAGTCACCTAGTGCAG”: the binding signal was 8440 fluorescence intensity (a.u.).

As to “ACTAGTGAAGTGTTGCCCGTTGGGTTTGGTGGAGTTTGAACGGAGTCACCTAGTGCAG”, the binding signal is 8200 fluorescence intensity (a.u.).

On to “GAAACAGAAGAATGGCTATGAGTTTGCCAAATCCTTCTATCGGAGTCACCTAGTGCAG”, for which the binding signal was 8780 fluorescence intensity (a.u.).

On to “CGGTGTTGTAAATTGGGCCCATATGTCGTGTACATGCAAGCGGAGTCACCTAGTGCAG”, for which the binding signal is 8080 fluorescence intensity (a.u.).

On to “CATCACATCACCAGAATCTATCACCTCTGTCACTGTTCTTCGGAGTCACCTAGTGCAG”, for which the binding signal was 11100 fluorescence intensity (a.u.).

With “ATAACATTAACTTCCCAGTTTTGGCACATCTTTACATATTCGGAGTCACCTAGTGCAG”, the binding signal is 10300 fluorescence intensity (a.u.).

In the case of “ATCATGGCAGTCCCAACCCTCCACCTAGGATATTGTCTATCGGAGTCACCTAGTGCAG”, the binding signal is 8450 fluorescence intensity (a.u.).

Regarding “TAATAGTATTTGTGTGTTTTTTCCGAGGTTTCTTGTGCTACGGAGTCACCTAGTGCAG”, the binding signal was 10500 fluorescence intensity (a.u.).

For “TCAGTGTACAATTTCATTTTGTGGCTTTTTAGGTTAGTCACGGAGTCACCTAGTGCAG”, the binding signal was 8800 fluorescence intensity (a.u.).

In the case of “TCACATCCTGAACAACTTACTCCATTTTCTTTTCTATAGACGGAGTCACCTAGTGCAG”, the binding signal was 8130 fluorescence intensity (a.u.).

For the sequence “ACCATTTTCCCAAGAGATATCGCCATCACGATCTCCCGTACGGAGTCACCTAGTGCAG”, the binding signal was 8120 fluorescence intensity (a.u.).

With “TCCCGCTGCCGCCTCATTGCCCACCGCCCTTCCTGCCACACGGAGTCACCTAGTGCAG”, the binding signal is 9220 fluorescence intensity (a.u.).

As for “CGCATTCCGTTCCGCCATTGCTGCCATGCCCGAGCTCGCGCGGAGTCACCTAGTGCAG”, the binding signal was 13000 fluorescence intensity (a.u.).

Consider “CTCCTCACGTGCATTGCCTCCATGCTGCTCTCTAATTTTCCGGAGTCACCTAGTGCAG”, for which the binding signal is 15900 fluorescence intensity (a.u.).

As for “CGCATATTGGGATGCGAAGTCGTGACCTTGTTTGTATATCCGGAGTCACCTAGTGCAG”, the binding signal was 8200 fluorescence intensity (a.u.).

Take “GATGATACGTTTATGCCGGTATACTCTGTATGTTAAGTCCCGGAGTCACCTAGTGCAG”: the binding signal was 8190 fluorescence intensity (a.u.).

Take “ACGTACTGAAGCACTTCCGTGTAATTCTGCATCTGGTCAACGGAGTCACCTAGTGCAG”: the binding signal was 9220 fluorescence intensity (a.u.).
